The source of these data is ChEMBL document CHEMBL4513152, “CO-ADD screening of Yantai University (China) compounds”.

Each structure is given as a SMILES string. The list shows a part of the results. Measured potencies and affinities stand elsewhere.

The test system of this experiment is Acinetobacter baumannii. As to conditions: Concentration 32 ug.mL-1; ASSAY_TEST Inhibition of Bacterial Growth; detection method Absorption (OD600); MEDIA CAMHB; plate type 384well; NBS; CORNING #3640; time 18 hr.
For `CC(=O)O[C@H]1C[C@@]2(C)C(C[C@@H](O)C3[C@@]4(C)CC[C@@H](OC(=O)c5ccccc5C(=O)OCCc5ccc(OCCO[N+](=O)[O-])cc5)[C@@H](C)C4CC[C@@]32C)/C1=C(\CCC=C(C)C)C(=O)OCc1ccccc1` (some centres undefined), the Inhibition (usually the drop in the measured response relative to a control, in per cent) is on record as -2.64%.
As for `CC(=O)O[C@H]1C[C@@]2(C)C(C[C@@H](O)C3[C@@]4(C)CC[C@@H](OC(=O)CO[N+](=O)[O-])[C@@H](C)C4CC[C@@]32C)/C1=C(\CCC=C(C)C)C(=O)OCc1ccccc1` (some centres undefined), the Inhibition is given as -3.15%.
Take `CC(=O)O[C@H]1C[C@@]2(C)C(C[C@@H](O)C3[C@@]4(C)CC[C@@H](OC(=O)C(N)CC(C)C)[C@@H](C)C4CC[C@@]32C)/C1=C(\CCC=C(C)C)C(=O)OCc1ccccc1` (some centres undefined): the Inhibition was -4.21%.
Consider `CC(=O)O[C@H]1C[C@@]2(C)C(C[C@@H](O)C3[C@@]4(C)CC[C@@H](OC(=O)CCC(=O)OCCc5ccc(OCCO[N+](=O)[O-])cc5)[C@@H](C)C4CC[C@@]32C)/C1=C(\CCC=C(C)C)C(=O)OCc1ccccc1` (some centres undefined), for which the Inhibition is -5.76%.
Take `CC(=O)O[C@H]1C[C@@]2(C)C(C[C@@H](O)C3[C@@]4(C)CC[C@@H](O)[C@@H](C)C4CC[C@@]32C)/C1=C(\CCC=C(C)C)C(=O)Oc1ccc(CCO[N+](=O)[O-])cc1` (some centres undefined): the Inhibition was -8.95%.
Next, `CC(=O)O[C@H]1C[C@@]2(C)C(C[C@@H](O)C3[C@@]4(C)CC[C@@H](OC(=O)c5ccccc5C(=O)Nc5cccc(N)c5)[C@@H](C)C4CC[C@@]32C)/C1=C(\CCC=C(C)C)C(=O)OCc1ccccc1` (some centres undefined): -7.67%.
For the compound `CC(=O)O[C@H]1C[C@@]2(C)C(C[C@@H](O)C3[C@@]4(C)CC[C@@H](OC(=O)CCCCO[N+](=O)[O-])[C@@H](C)C4CC[C@@]32C)/C1=C(\CCC=C(C)C)C(=O)OCc1ccccc1` (some centres undefined), the Inhibition is on record as -9.75%.
Next, `CC(=O)O[C@H]1C[C@@]2(C)C(C[C@@H](O)C3[C@@]4(C)CC[C@@H](OC(=O)C(C)N)[C@@H](C)C4CC[C@@]32C)/C1=C(\CCC=C(C)C)C(=O)OCc1ccccc1` (some centres undefined): -17.87%; `CC(=O)O[C@H]1C[C@@]2(C)C(C[C@@H](O)C3[C@@]4(C)CC[C@@H](OC(=O)C(N)C(C)C)[C@@H](C)C4CC[C@@]32C)/C1=C(\CCC=C(C)C)C(=O)OCc1ccccc1` (some centres undefined): -13.72%; `CC(=O)O[C@H]1C[C@@]2(C)C(CC(=O)C3[C@@]4(C)CCC(=O)[C@@H](C)C4CC[C@@]32C)/C1=C(\CCC=C(C)C)C(=O)OCc1ccccc1` (some centres undefined): -9.49%.
Turning to `CC(=O)O[C@H]1C[C@@]2(C)C(C[C@@H](O)C3[C@@]4(C)CC[C@@H](O)[C@@H](C)C4CC[C@@]32C)/C1=C(\CCC=C(C)C)C(=O)OCc1ccccc1` (some centres undefined), the Inhibition is recorded as -14.6%.
As for `CC(=O)O[C@H]1C[C@@]2(C)C(CC(=O)C3[C@@]4(C)CC[C@@H](OC(=O)CCCCCO[N+](=O)[O-])[C@@H](C)C4CC[C@@]32C)/C1=C(\CCC=C(C)C)C(=O)OCc1ccccc1` (some centres undefined), the Inhibition is -6.19%.
In the case of `CC(=O)O[C@H]1C[C@@]2(C)C(C[C@@H](O)C3[C@@]4(C)CC[C@@H](OC(=O)CCC(=O)O)[C@@H](C)C4CC[C@@]32C)/C1=C(\CCC=C(C)C)C(=O)OCc1ccccc1` (some centres undefined), the Inhibition is 0.71%.
With `CC(=O)O[C@H]1C[C@@]2(C)C(C[C@@H](O)C3[C@@]4(C)CC[C@@H](OC(=O)c5ccccc5C(=O)Oc5ccc(CCO[N+](=O)[O-])cc5)[C@@H](C)C4CC[C@@]32C)/C1=C(\CCC=C(C)C)C(=O)OCc1ccccc1` (some centres undefined), the Inhibition was -8.2%.
Take `CC(=O)O[C@H]1C[C@@]2(C)C(C[C@@H](O)C3[C@@]4(C)CC[C@@H](OC(=O)c5ccccc5C(=O)Nc5ccc(N)cc5)[C@@H](C)C4CC[C@@]32C)/C1=C(\CCC=C(C)C)C(=O)OCc1ccccc1` (some centres undefined): the Inhibition is reported as -9.86%.
`CC(=O)O[C@H]1C[C@@]2(C)C(CC(=O)C3[C@@]4(C)CC[C@@H](OC(=O)CCCCO[N+](=O)[O-])[C@@H](C)C4CC[C@@]32C)/C1=C(\CCC=C(C)C)C(=O)OCc1ccccc1` (some centres undefined): the Inhibition is given as -4.85%.
On to `CC(=O)O[C@H]1C[C@@]2(C)C(C[C@@H](O)C3[C@@]4(C)CC[C@@H](O)[C@@H](C)C4CC[C@@]32C)/C1=C(\CCC=C(C)C)C(=O)On1nnc2ccccc21` (some centres undefined), for which the Inhibition is recorded as -4.42%.
As to `CC(=O)O[C@H]1C[C@@]2(C)C(C[C@@H](O)C3[C@@]4(C)CC[C@@H](OC(=O)CCCCCO[N+](=O)[O-])[C@@H](C)C4CC[C@@]32C)/C1=C(\CCC=C(C)C)C(=O)OCc1ccccc1` (some centres undefined), the Inhibition was -6.35%.
Turning to `CC(=O)O[C@H]1C[C@@]2(C)C(C[C@@H](O)C3[C@@]4(C)CC[C@@H](OC(=O)CCC(=O)Oc5ccc(CCO[N+](=O)[O-])cc5)[C@@H](C)C4CC[C@@]32C)/C1=C(\CCC=C(C)C)C(=O)OCc1ccccc1` (some centres undefined), the Inhibition was -2.18%.
